For at least one entry, the source does not settle the construct or the ends of the probe.
Test system: tau381 (1N3R as printed) (human)
Assay: capillary electrophoresis of equilibrium mixtures (NECEEM)
Details: 0.1 M PBS pH 7.0, 5 uM aptamer for immobilization, 30 min tau381 incubation, DPV -0.6 to 0.2 V; EIS in 10 mM [Fe(CN)6]3-/4-; temperature not stated; commercial protein; single-stranded DNA

Chains of the proteins cited; added tags and fusions are not shown. Chains listed by the source or under a name are the forms on record and can include a tag or linker.
tau381 (1N3R as printed) (human), one chain, as listed by the source: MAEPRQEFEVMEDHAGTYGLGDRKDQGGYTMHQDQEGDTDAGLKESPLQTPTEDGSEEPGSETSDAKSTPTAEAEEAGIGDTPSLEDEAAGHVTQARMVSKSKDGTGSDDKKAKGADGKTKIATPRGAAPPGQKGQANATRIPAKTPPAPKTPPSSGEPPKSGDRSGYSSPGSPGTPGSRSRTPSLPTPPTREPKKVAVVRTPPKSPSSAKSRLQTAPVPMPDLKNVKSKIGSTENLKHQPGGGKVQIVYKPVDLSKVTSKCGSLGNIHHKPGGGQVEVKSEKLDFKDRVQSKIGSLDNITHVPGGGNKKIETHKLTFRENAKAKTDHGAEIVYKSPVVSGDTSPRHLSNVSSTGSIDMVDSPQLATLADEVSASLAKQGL

GCGGAGCGTGGCAGG [tau381 aptamer (ref 9)]
Kd: 190 nM

Source: paper PMC6784373
